This assay deals with 5HTR2B (Homo sapiens, UniProt P41595). Nature of the assay: 5HTR2B antagonist activity, calcium mobilization assay in human Maverick/293 cells (serotonin as agonist). The format is cell-based. The settings on record: read-out: Ca assay IC50, intracellular calcium, emission 525 nm. A general note: A change in cytosolic calcium serves as a functional read-out for many receptors and channels.

Sequences of proteins named here, by UniProt entry; tags and fusion partners are left off.
UniProt P41595, whole entry: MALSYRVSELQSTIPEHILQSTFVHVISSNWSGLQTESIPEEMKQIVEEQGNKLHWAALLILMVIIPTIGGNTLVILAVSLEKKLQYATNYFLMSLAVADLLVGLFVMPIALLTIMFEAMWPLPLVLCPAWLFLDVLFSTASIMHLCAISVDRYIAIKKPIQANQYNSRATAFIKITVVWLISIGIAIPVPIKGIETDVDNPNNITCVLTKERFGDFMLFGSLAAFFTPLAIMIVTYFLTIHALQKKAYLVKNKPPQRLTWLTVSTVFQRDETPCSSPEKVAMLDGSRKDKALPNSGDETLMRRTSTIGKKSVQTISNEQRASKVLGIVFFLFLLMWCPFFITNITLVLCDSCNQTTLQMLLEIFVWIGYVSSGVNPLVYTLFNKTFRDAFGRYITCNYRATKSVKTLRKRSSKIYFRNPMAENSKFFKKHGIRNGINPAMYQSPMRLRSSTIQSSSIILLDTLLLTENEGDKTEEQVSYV

The structures appear in SMILES notation. Structures were worked out from names or drawings and are uncertain.

Consider `COc1ccc(S(=O)(=O)N[C@H](C)C(N)=O)cc1C(=O)Nc1ccccc1Cl`, for which the IC50 – broadly, the midpoint of a concentration-inhibition curve – turned out to be 0.2 nM.

The values are drawn from patent US10654837B2, “Sulphamoylaryl derivatives and use thereof as medicaments for the treatment of liver fibrosis” (Janssen Pharmaceutica NV, priority 2017, dated 2020).
